# Out of some 360,000 compounds screened, about 780 (0.22%) were called active. Inconclusive means that the source gave no clear call. Such entries were picked first, then a sample of the others. No stated cut-off is given here; in the data, active means inhibition above about 35% (passing the limit was not always enough); inconclusive means no clear call, values can overlap the other calls.
# Tested on: Botulinum neurotoxin type F light chain protease (Clostridium botulinum)
# Experiment: BoNT/F light chain protease inhibitors, primary screen, biochemical, flow cytometry, MLPCN library (AID 588497); further: plate controls were buffer without enzyme for full effect and enzyme alone for no effect
# Conditions: Multiplex microsphere protease cleavage assay, at 10 µM, hits give high values
row,SMILES,inhibition
1,COC(=O)c1ccccc1NCc1cc(=O)oc2cc(O)c(O)cc12,inconclusive: 15.3%
2,O=C(O)CCC(=O)Nc1ccc(OCC2CCCO2)cc1 (configuration not stated),inconclusive: 2.1%
3,CCN(CCO)c1ccc(N=Nc2cc(C)[nH]n2)cc1,inconclusive: 11.8%
4,COc1ccc(Cl)cc1NC(=O)C1CC(c2c(F)cccc2Cl)=NO1 (configuration not stated),active: 36.7%
5,COc1cc(NC(=O)c2cccs2)ccc1NC(=O)c1ccco1,inconclusive: -5.4%
6,COCCc1ccc(OC2(C)CCN(Cc3ccc(OC)c4ccccc34)C2)cc1 (configuration not stated),inactive: -8.4%
7,CCCN1C2CCCC1CC(NC(=O)c1ccc(Br)cc1)C2 (configuration not stated),inconclusive: -14.9%
8,COc1ccc(OC)c(S(=O)(=O)Oc2ccc(N)c3ccccc23)c1,inconclusive: -117%
9,CC(=O)N1CCC(N(CCN2CCOCC2)C(=S)Nc2cc(C)cc(C)c2)CC1,inactive: 0.6%
10,COc1ccc(-c2nnc(-c3ccccc3O)o2)cc1,inconclusive: -6.4%
11,O=S(=O)(c1cccs1)N1CCC(Cc2ccccc2)CC1,inconclusive: -36.4%
12,COc1ccc(NC(=O)CCCCCN2C(=O)c3ccccc3C2=O)c(OC)c1,inconclusive: -26.9%
13,O=C(NCc1ccccc1)N1CCNCC1,inconclusive: 60.4%
14,CC1=NNC(=O)C1CC(=O)N/N=C/c1cccs1 (configuration not stated),inconclusive: -67.6%
15,COc1c2ccccc2nn1C(C)C,inactive: -0.4%
16,CC(=O)Nc1ccc(Nc2cc(C)nc3ccccc23)cc1,inconclusive: -85.3%
17,C=CCNC(=O)N1CCC(c2nc3ccccc3s2)CC1,inconclusive: 7.6%
18,O=C(COC(=O)c1ccccc1Br)NCCC1=CCCCC1,inactive: 23.6%
19,Cc1ccc(NC(=O)CN2CCN(Cc3ccccc3)CC2)cc1Cl,inconclusive: 33.2%
20,COc1ccc(OC)c(/C=C/C(=O)c2ccc3c(c2)OCCO3)c1,inconclusive: 30.4%
21,Cc1nn(-c2ccccc2)c(C)c1C(=O)OCc1ccc(C#N)cc1,inconclusive: -29.5%
22,O=C(c1cc2cc([N+](=O)[O-])ccc2oc1=O)N1CCN(c2ncccn2)CC1,active: 37.8%
23,Cc1ccccc1-n1c(=O)n(Cc2ccccc2)c(=O)c2[nH]cnc21,inconclusive: -129%
24,CN(C)C(=S)NC1(C)CCS(=O)(=O)C1 (configuration not stated),inconclusive: -3.8%
25,COCC(=O)Nc1ccc2c(c1)OCC(=O)N2Cc1ccc(C)cc1,inconclusive: -1.9%
26,CCN(CC)c1ccc2c(C)c(CO)c(=O)oc2c1,inactive: -3%
27,COc1cccc(-c2nnc3n2N=C(c2cccc(Br)c2)CS3)c1,inactive: -5.3%

# 5 entries from above in another layout:
row	SMILES	inhibition
16	CC(=O)Nc1ccc(Nc2cc(C)nc3ccccc23)cc1	inconclusive: -85.3%
17	C=CCNC(=O)N1CCC(c2nc3ccccc3s2)CC1	inconclusive: 7.6%
18	O=C(COC(=O)c1ccccc1Br)NCCC1=CCCCC1	inactive: 23.6%
19	Cc1ccc(NC(=O)CN2CCN(Cc3ccccc3)CC2)cc1Cl	inconclusive: 33.2%
20	COc1ccc(OC)c(/C=C/C(=O)c2ccc3c(c2)OCCO3)c1	inconclusive: 30.4%
